Structures can show the parent of a compound that is named as a salt. The list shows a part of the results. Hit calls seldom repeat between salt and free forms of one compound.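 Kinases, fused to nanoluciferase, were expressed in K562 cells; luminescence was measured every 4 h from 2 to 18 h as percent of control (DMSO = 100%, positive control = 0%). A time point is decreased if signal falls significantly (2 sigma). Hits were called by the authors by a rule that is not shown; the count of time points alone does not decide it.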
How the values were obtained:
Conditions in all cases: K562; 2-18 h
ROR2 = ROR2 (UniProt Q01974); experiment: number of time points (of 5) at which kinase-Nluc abundance scored as decreased, DMSO-normalised (count); higher = more persistent destabilization
RPS6KA1 = RPS6KA1 (UniProt Q15418); experiment: as above
SPHK1 = SPHK1 (UniProt Q9NYA1); experiment: as above
SRC = SRC (UniProt P12931); experiment: as above
STK24 = STK24 (UniProt Q9Y6E0); experiment: as above
STK38 = STK38 (UniProt Q15208); experiment: as above
SYK = SYK (UniProt P43405); experiment: as above
TEC = TEC (UniProt P42680); experiment: as above
TYK2 = TYK2 (UniProt P29597); experiment: as above
ULK3 = ULK3 (UniProt Q6PHR2); experiment: as above
YES1 = YES1 (UniProt P07947); experiment: as above
ZAK = ZAK (UniProt Q9NYL2); experiment: as above
ZAP70 = ZAP70 (UniProt P43403); experiment: as above
CDK4 = CDK4 (UniProt P11802); experiment: number of time points (of 4; 2 h point missing) at which kinase-Nluc abundance scored as decreased, DMSO-normalised (count); higher = more persistent destabilization
CDK7 = CDK7 (UniProt P50613); experiment: as above
CDK9 = CDK9 (UniProt P50750); experiment: as above

By UniProt entry, the sequences of proteins in these tests, tags left out. Where a name states a change or a piece, a line headed by the entry shows the natural chain unless it says otherwise.
UniProt Q01974, whole entry: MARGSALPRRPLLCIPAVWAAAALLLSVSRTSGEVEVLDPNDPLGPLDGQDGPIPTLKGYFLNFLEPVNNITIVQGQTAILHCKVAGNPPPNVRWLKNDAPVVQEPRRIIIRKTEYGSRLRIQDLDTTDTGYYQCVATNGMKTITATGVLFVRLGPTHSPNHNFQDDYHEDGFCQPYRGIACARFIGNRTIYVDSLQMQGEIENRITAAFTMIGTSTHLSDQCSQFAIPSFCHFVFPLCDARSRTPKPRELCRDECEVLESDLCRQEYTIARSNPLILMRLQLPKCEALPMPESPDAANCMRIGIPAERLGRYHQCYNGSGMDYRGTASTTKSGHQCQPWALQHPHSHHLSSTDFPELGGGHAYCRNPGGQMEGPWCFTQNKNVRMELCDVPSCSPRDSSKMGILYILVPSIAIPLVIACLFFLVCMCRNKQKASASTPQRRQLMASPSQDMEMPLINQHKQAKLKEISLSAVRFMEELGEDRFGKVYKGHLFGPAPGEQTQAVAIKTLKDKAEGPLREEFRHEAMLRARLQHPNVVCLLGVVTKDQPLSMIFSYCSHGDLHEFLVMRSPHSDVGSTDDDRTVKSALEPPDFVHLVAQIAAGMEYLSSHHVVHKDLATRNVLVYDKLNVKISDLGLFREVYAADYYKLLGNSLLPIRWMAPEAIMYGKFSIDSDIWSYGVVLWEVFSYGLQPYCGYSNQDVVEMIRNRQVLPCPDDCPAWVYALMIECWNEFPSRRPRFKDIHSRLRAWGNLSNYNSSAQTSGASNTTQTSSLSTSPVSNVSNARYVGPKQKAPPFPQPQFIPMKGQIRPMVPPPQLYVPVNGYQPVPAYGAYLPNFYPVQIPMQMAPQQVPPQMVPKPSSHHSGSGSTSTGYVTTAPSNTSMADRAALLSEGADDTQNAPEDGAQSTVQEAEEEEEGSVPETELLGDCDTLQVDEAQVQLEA
UniProt Q15418, whole entry: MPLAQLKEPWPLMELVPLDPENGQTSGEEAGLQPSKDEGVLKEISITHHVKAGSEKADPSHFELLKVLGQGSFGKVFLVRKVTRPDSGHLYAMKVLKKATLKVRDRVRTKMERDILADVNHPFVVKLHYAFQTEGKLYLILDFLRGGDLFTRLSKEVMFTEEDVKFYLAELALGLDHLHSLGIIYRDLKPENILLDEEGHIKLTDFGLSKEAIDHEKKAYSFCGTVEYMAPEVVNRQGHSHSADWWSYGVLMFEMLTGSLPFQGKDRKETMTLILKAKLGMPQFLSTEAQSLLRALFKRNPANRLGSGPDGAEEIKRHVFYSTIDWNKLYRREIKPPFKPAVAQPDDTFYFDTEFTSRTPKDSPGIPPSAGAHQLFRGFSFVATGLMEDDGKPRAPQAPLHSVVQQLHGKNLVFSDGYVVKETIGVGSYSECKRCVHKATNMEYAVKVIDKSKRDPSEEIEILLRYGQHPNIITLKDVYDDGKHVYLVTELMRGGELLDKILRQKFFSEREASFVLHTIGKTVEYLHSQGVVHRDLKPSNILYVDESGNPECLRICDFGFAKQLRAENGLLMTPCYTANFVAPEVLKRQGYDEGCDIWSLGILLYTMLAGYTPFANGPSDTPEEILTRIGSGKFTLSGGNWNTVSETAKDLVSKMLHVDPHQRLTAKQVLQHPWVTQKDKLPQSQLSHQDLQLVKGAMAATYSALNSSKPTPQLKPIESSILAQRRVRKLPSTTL
UniProt Q9NYA1, whole entry: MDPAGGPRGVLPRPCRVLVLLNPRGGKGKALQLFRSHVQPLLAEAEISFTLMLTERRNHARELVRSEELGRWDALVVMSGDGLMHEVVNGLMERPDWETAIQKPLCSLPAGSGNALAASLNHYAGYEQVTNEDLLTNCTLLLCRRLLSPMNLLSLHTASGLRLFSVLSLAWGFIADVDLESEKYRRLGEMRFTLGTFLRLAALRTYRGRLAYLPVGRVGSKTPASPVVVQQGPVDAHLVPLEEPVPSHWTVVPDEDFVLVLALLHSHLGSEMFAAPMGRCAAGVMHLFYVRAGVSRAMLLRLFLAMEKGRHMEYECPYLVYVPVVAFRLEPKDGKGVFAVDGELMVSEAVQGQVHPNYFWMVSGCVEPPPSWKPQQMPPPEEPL
UniProt Q9Y6E0: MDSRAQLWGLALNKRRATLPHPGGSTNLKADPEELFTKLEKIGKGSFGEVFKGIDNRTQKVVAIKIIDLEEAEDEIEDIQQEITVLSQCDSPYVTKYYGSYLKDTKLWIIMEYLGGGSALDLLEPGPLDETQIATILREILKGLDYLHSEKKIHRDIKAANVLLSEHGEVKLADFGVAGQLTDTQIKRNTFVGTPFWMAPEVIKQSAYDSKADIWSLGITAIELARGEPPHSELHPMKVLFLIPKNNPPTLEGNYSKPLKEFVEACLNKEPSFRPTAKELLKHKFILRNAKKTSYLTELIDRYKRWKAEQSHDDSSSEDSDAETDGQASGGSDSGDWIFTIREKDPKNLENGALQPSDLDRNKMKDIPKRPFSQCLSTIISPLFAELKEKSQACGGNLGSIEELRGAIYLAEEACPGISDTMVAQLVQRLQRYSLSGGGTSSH
UniProt Q15208: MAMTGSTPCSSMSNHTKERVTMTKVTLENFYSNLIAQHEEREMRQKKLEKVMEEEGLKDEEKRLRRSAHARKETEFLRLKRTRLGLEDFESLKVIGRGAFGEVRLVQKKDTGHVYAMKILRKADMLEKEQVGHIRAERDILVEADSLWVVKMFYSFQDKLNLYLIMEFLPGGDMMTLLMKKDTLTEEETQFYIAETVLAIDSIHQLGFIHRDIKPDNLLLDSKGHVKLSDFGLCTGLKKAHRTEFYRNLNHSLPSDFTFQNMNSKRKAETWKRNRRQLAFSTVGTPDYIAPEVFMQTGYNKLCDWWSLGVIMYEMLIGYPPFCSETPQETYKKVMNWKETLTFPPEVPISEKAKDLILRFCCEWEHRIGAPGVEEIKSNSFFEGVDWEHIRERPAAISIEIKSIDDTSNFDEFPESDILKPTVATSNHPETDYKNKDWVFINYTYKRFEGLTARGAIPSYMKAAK
UniProt P29597: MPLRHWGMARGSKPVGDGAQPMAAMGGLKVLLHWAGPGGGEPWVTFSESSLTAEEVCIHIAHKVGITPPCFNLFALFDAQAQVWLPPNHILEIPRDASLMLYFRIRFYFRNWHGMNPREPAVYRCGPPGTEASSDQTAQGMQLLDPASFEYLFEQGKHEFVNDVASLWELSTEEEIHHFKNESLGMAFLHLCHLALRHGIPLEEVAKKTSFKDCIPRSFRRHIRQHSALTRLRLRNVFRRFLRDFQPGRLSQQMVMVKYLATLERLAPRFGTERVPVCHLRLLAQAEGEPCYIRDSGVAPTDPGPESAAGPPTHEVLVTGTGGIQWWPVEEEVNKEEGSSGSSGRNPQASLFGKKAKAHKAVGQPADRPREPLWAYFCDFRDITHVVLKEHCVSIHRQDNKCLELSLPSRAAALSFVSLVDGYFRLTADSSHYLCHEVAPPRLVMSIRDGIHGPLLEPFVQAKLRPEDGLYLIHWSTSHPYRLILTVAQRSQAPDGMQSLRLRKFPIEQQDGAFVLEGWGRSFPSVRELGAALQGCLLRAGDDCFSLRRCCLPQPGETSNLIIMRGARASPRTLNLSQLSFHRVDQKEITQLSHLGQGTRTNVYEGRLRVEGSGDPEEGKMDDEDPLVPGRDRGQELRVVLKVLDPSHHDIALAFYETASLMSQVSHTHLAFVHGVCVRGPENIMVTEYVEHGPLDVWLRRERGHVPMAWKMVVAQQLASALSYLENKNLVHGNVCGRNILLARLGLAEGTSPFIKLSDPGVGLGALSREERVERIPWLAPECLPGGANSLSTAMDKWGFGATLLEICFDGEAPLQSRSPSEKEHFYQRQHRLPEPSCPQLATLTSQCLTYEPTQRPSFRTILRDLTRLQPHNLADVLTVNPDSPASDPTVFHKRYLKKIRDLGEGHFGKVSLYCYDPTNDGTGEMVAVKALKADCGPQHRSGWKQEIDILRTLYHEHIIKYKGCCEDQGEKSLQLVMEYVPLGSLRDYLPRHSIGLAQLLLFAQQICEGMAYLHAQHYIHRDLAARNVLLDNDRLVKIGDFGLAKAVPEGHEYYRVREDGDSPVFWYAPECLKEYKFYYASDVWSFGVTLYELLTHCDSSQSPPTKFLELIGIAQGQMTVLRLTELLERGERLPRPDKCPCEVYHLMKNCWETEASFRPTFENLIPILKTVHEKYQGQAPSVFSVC
UniProt Q6PHR2: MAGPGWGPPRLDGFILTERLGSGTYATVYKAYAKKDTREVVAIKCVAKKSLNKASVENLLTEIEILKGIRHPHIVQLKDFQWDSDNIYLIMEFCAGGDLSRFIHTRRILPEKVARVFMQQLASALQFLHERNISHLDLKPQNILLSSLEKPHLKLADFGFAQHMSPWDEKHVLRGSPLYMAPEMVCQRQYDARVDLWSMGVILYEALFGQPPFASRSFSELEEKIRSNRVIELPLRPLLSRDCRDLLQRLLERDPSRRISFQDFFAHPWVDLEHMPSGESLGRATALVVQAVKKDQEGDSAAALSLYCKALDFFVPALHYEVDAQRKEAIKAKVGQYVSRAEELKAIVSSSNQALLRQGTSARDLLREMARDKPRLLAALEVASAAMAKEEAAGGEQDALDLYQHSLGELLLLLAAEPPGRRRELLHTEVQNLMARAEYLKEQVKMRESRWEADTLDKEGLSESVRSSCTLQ
UniProt P07947, whole entry, looked up: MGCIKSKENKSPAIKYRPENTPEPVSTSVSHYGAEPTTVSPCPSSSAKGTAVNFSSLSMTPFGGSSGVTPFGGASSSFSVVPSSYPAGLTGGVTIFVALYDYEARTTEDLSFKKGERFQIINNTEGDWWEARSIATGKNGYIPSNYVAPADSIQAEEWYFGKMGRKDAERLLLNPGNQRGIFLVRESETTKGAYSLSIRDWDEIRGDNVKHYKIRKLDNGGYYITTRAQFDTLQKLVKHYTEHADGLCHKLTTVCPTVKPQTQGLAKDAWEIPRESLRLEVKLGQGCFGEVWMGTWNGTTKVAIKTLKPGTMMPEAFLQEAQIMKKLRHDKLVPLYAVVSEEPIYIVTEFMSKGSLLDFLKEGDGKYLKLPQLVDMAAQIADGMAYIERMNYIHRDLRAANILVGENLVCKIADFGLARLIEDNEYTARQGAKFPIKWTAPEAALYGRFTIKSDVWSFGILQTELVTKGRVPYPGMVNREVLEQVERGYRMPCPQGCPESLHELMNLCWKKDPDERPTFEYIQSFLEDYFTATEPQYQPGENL
UniProt P11802: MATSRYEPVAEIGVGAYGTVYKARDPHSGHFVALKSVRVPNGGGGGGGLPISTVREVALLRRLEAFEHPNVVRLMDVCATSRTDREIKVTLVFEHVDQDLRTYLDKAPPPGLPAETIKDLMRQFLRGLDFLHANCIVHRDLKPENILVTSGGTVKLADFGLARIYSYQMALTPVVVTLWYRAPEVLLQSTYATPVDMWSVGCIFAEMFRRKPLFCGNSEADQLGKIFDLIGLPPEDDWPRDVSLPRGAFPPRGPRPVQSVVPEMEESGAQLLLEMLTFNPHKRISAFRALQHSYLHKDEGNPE
UniProt P50613: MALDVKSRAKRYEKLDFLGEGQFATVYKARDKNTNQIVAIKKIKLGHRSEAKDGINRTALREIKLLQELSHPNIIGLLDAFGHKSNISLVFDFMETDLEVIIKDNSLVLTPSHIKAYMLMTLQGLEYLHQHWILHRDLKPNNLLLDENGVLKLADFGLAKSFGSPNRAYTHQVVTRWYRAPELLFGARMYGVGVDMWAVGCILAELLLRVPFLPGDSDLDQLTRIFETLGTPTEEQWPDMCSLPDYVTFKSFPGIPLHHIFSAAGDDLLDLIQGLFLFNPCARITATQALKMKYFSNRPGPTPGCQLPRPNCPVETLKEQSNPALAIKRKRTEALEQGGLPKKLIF
UniProt P50750, whole entry: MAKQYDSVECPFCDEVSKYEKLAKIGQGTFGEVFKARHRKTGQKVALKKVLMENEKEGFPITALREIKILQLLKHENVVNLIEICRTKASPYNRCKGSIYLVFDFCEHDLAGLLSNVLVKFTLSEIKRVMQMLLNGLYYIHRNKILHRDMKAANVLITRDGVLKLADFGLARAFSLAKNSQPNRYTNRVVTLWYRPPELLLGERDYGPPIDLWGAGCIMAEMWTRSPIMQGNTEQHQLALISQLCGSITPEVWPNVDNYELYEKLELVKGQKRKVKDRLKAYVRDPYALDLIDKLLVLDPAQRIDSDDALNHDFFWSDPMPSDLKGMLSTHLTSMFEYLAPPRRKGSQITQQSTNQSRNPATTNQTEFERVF

Measured: number of time points

CC(C)(C)c1cc(O)ccc1O (10 µM)
0: all assays above

NC(=O)c1ccc2[nH]ccc2c1 (10 µM)
0: all assays above

Cc1ccc(OCCSc2ncccn2)c(Br)c1 [ZLN024 (hydrochloride)] (10 µM)
0: all assays above

Cc1cc(Nc2ncnc3ccc(NC4=NC(C)(C)CO4)cc23)ccc1Oc1ccn2ncnc2c1 [Tucatinib] (2.5 µM)
0: all assays above

COc1cc(Nc2ncc(F)c(Nc3ccc4c(n3)NC(=O)C(C)(C)O4)n2)cc(OC)c1OC (10 µM)
not listed: SYK
0: all other assays above

Cc1[nH]c(/C=C2\C(=O)Nc3ccccc32)c(C)c1CCC(=O)O [(Z)-Orantinib] (10 µM)
not listed: RPS6KA1
0: all other assays above

CC(C)(C)c1nc(-c2cccc(NS(=O)(=O)c3c(F)cccc3F)c2F)c(-c2ccnc(N)n2)s1 [Dabrafenib] (2.5 µM)
0: all assays above

Cn1cc(-c2ccc3nnc(Sc4ccc5ncccc5c4)n3n2)cn1 (10 µM)
0: all assays above

CCc1cc2c(cc1N1CCC(N3CCOCC3)CC1)C(C)(C)c1[nH]c3cc(C#N)ccc3c1C2=O [Alectinib (Hydrochloride)] (2 µM)
0: all assays above

O=C1NC(=O)/C(=C/c2ccc3nccnc3c2)S1 (10 µM)
0: all assays above

From the supplement of paper PMC12823440, “Inhibitors supercharge kinase turnover through native proteolytic circuits” (Nature, 2025)
